Source: PubChem BioAssay AID720505 (Drosophila RNAi Screening Center, 2013)

Test: 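Fly regulators or components of the CRAC channel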 (primary screen)
System: Drosophila S2R+ cells
Reagent: long dsRNA against Drosophila genes
Challenge: thapsigargin (2 µM) in calcium-free buffer to empty internal stores, then 2 mM calcium added back
Measured: 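Fluo-4 signal in 384-well plates read on a FLIPR after thapsigargin (2 µM, calcium-free) store depletion and 2 mM calcium add-back; unnormalised mean endpoint per well; screen run twice, selected wells retested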
Direction: calcium signal and retest calcium signal: higher = more calcium entry after store depletion
Hit rule: 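About 1500 genes called as lowering calcium entry, by varying amounts, judged against per-plate control wells with STIM1 as positive and Rho1 as negative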
Calls: active = called as lowering calcium entry; inactive = not called
In all, the deposit lists about 20,000 reagents; this is an unselected part of those with a known target gene and a result. In the full data, about 2,100 (10%) are marked active. 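Raw plate signals without normalisation; calls rest on control-based scores that were not deposited; replicate 2 separates called from uncalled poorly.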 The numbers tell different reagents against one gene apart. Names joined by + are all predicted targets of the reagent. The record does not give: the amount of reagent, the time to read-out.

Silencing of CG14022 came out at: calcium signal, replicate 1 = 194; calcium signal, replicate 2 = 83.2; inactive. Against ab #1 the deposit lists calcium signal, replicate 1 = 126; calcium signal, replicate 2 = 94.4; inactive. ab #2 scored calcium signal, replicate 1 = 190; calcium signal, replicate 2 = 168; inactive. Silencing of ab #3 came out at: calcium signal, replicate 1 = 79.7; calcium signal, replicate 2 = 144; inactive. Knock-down of ab #4 resulted in: calcium signal, replicate 1 = 116; calcium signal, replicate 2 = 103; inactive. Silencing of Trmt112 came out at: calcium signal, replicate 1 = 116; calcium signal, replicate 2 = 116; inactive.

Against CheB38a, the entry reads calcium signal, replicate 1 = 190; calcium signal, replicate 2 = 75.5; retest calcium signal, replicate 1 = 133; retest calcium signal, replicate 2 = 136; inactive. For CG40341 (retired record) #1 the deposit lists calcium signal, replicate 1 = 79.3; calcium signal, replicate 2 = 5631; inactive. CG40341 (retired record) #2 scored calcium signal, replicate 1 = 84; calcium signal, replicate 2 = 9898; inactive. Or65a showed inactive. Silencing of CycB3 gave: calcium signal, replicate 1 = 134; calcium signal, replicate 2 = 134; inactive. After knock-down of Rh2, the screen gave calcium signal, replicate 1 = 194; calcium signal, replicate 2 = 98.4; inactive.

CG15236 #1 scored calcium signal, replicate 1 = 84.9; calcium signal, replicate 2 = 85.6; inactive. CG15236 #2 showed calcium signal, replicate 1 = 218; calcium signal, replicate 2 = 103; inactive. After knock-down of CG15236 #3, the record shows calcium signal, replicate 1 = 111; calcium signal, replicate 2 = 136; inactive. For CG4892, the values are calcium signal, replicate 1 = 84; calcium signal, replicate 2 = 107; inactive. Mcm2 showed calcium signal, replicate 1 = 79.4; calcium signal, replicate 2 = 166; inactive. CG17127 gave calcium signal, replicate 1 = 118; calcium signal, replicate 2 = 106; inactive.

Silencing of CG3902 came out at: calcium signal, replicate 1 = 88.3; calcium signal, replicate 2 = 129; inactive. After knock-down of CG14005, the record shows calcium signal, replicate 1 = 99.1; calcium signal, replicate 2 = 187; inactive. After knock-down of TM9SF2, the record shows calcium signal, replicate 1 = 90.6; calcium signal, replicate 2 = 75.7; inactive. CG15818 scored calcium signal, replicate 1 = 153; calcium signal, replicate 2 = 174; inactive. CG2519 gave calcium signal, replicate 1 = 113; calcium signal, replicate 2 = 130; inactive. With knock-down of CG18585, the screen gave calcium signal, replicate 1 = 148; calcium signal, replicate 2 = 315; inactive.

Or42a gave calcium signal, replicate 1 = 230; calcium signal, replicate 2 = 204; inactive. After knock-down of vilya, the screen gave calcium signal, replicate 1 = 132; calcium signal, replicate 2 = 175; inactive. His-Psi:CR31616 + His-Psi:CR31615 showed calcium signal, replicate 1 = 64.6; calcium signal, replicate 2 = 5590; active. For CG4459, the entry reads calcium signal, replicate 1 = 146; calcium signal, replicate 2 = 190; inactive.
